This note sets out measurements from the supplement of paper PMC12067093, “Discovery and optimisation of a covalent ligand for TRIM25 and its application to targeted protein ubiquitination” (Chemical Science, 2025).

This is one part of the list.
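Note: competitive profiling in live THP-1 cells: cysteine peptides tagged with an iodoacetamide desthiobiotin (IA-DTB) probe, intensity after compound treatment relative to DMSO-treated cells.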

Compound in the first experiment: Cc1cc(ccc1-c1ccccc1)C(=O)N1CCCN(CC1)C(=O)CCl [compound 10]
Nature of the experiment: probe-labelled cysteine peptide fold change vs DMSO (competition) (log2 fold change); higher = less target engagement (more negative = stronger competition). The conditions noted are these: 10 µM; THP-1; incubation time: 4 h.
As to “MIF_P14174_81_LLCGLLAER (UniProt P14174)”, the “probe-labelled cysteine peptide fold change” value amounted to 0.142.

Regarding “MILR1_Q7Z6M3_329_EQEACDSYK (UniProt Q7Z6M3)”, the “probe-labelled cysteine peptide fold change” value was -0.341.

As for “MLH1_P40692_672_ECFESLSK (UniProt P40692)”, the “probe-labelled cysteine peptide fold change” value was -0.0824.

As to “MKLN1_Q9UL63_446_LLREDSCNAGPEDIQSR (UniProt Q9UL63)”, the “probe-labelled cysteine peptide fold change” value was 0.078.

In the case of “MON2_Q7Z3U7_1033_LGELCVDPR (UniProt Q7Z3U7)”, the “probe-labelled cysteine peptide fold change” value is -0.0636.

Take “MPP6_Q9NZW5_236_CHFDYNPYNDNLIPCK (UniProt Q9NZW5)”: the “probe-labelled cysteine peptide fold change” value stood at 0.0296.

Regarding “MRPL36_Q9P0J6_92_WYVYCK (UniProt Q9P0J6)”, the “probe-labelled cysteine peptide fold change” value is -0.141.

Turning to “MRPL17_Q9NRX2_129_GNCLPPLPLPR (UniProt Q9NRX2)”, the “probe-labelled cysteine peptide fold change” value was -0.184.

With “MORC3_Q14149_694_SADDAGCQLQELR (UniProt Q14149)”, the “probe-labelled cysteine peptide fold change” value was -0.31.

“MRPS17_Q9Y2R5_58_TYFAHDALQQCTVGDIVLLR (UniProt Q9Y2R5)”: the “probe-labelled cysteine peptide fold change” value came to 0.277.

Take “MIOS_Q9NXC5_854+856_DHAECPVSACTCK (UniProt Q9NXC5)”: the “probe-labelled cysteine peptide fold change” value was -0.0144.

With “MRM3_Q9HC36_309_ASDHGWVCDQR (UniProt Q9HC36)”, the “probe-labelled cysteine peptide fold change” value was -0.221.

On to “MMTAG2_Q9BU76_58_APCAGPSREEELAAVR (UniProt Q9BU76)”, for which the “probe-labelled cysteine peptide fold change” value is -0.197.

As for “MILR1_Q7Z6M3_297_EESVPEVGSRPCVSTAQDEAK (UniProt Q7Z6M3)”, the “probe-labelled cysteine peptide fold change” value is -0.35.

On to “MNDA_P41218_274_KVITISDYSECK (UniProt P41218)”, for which the “probe-labelled cysteine peptide fold change” value was -0.16.

Turning to “MRC2_Q9UBG0_521_AGQLSQGAAEEDHGCRK (UniProt Q9UBG0)”, the “probe-labelled cysteine peptide fold change” value is -0.292.

For “MKI67_P46013_1251_IPCDSPQSDPVDTPTSTK (UniProt P46013)”, the “probe-labelled cysteine peptide fold change” value is -0.124.

For “MIS18BP1_Q6P0N0_918_SPEECQR (UniProt Q6P0N0)”, the “probe-labelled cysteine peptide fold change” value was determined as 0.443.

On to “MRPL45_Q9BRJ2_80_SIHLACTAGIFDAYVPPEGDAR (UniProt Q9BRJ2)”, for which the “probe-labelled cysteine peptide fold change” value worked out at 0.157.

With “MKI67_P46013_1007_MPCQSLQPEPINTPTHTK (UniProt P46013)”, the “probe-labelled cysteine peptide fold change” value is -0.0644.

Regarding “MRPL38_Q96DV4_321_KHQETMTPAGLSFFQCR (UniProt Q96DV4)”, the “probe-labelled cysteine peptide fold change” value came to 0.145.

On to “MORC3_Q14149_744_ETCHQSTETDAVFLLESINGK (UniProt Q14149)”, for which the “probe-labelled cysteine peptide fold change” value amounted to 0.114.

On to “MRPL44_Q9H9J2_167_NLVDFLTGEEVVCHVAR (UniProt Q9H9J2)”, for which the “probe-labelled cysteine peptide fold change” value turned out to be 0.167.

As to “MPC2_O95563_54_WGLVCAGLADMAR (UniProt O95563)”, the “probe-labelled cysteine peptide fold change” value was determined as 0.00495.

On to “MKLN1_Q9UL63_82_THVCNLKK (UniProt Q9UL63)”, for which the “probe-labelled cysteine peptide fold change” value is -0.144.

Consider “MIA3_Q5JRA6_61_GEALEDFTGPDCR (UniProt Q5JRA6)”, for which the “probe-labelled cysteine peptide fold change” value is -0.22.

Regarding “MOV10_Q9HCE1_650_LVSAQFPIDHFTHIFIDEAGHCMEPESLVAIAGLMEVK (UniProt Q9HCE1)”, the “probe-labelled cysteine peptide fold change” value is -0.0194.

With “MRPL38_Q96DV4_290_QDQPIDFSEDARPSPCYQLAQR (UniProt Q96DV4)”, the “probe-labelled cysteine peptide fold change” value was -0.0378.

On to “MROH1_Q8NDA8_888_ADVIHGCLHSIMALLPEPKEEDGGCQK (UniProt Q8NDA8)”, for which the “probe-labelled cysteine peptide fold change” value is -0.172.

Regarding “MKLN1_Q9UL63_469_CLYVFGGQR (UniProt Q9UL63)”, the “probe-labelled cysteine peptide fold change” value worked out at 0.0117.

Turning to “MROH1_Q8NDA8_1035_DGLVHPDPAILFHTCHSVGQIIAK (UniProt Q8NDA8)”, the “probe-labelled cysteine peptide fold change” value was 0.023.

On to “MRPL22_Q9NWU5_70_RPAEIYHCR (UniProt Q9NWU5)”, for which the “probe-labelled cysteine peptide fold change” value is -0.086.

Consider “MLH1_P40692_77_EDLDIVCER (UniProt P40692)”, for which the “probe-labelled cysteine peptide fold change” value is -0.221.

As to “MKI67_P46013_715_KPVGEVHSQFSTGHANSPCTIIIGK (UniProt P46013)”, the “probe-labelled cysteine peptide fold change” value is 0.206.

With “MKI67_P46013_2706_IPCESPPLEVVDTTASTK (UniProt P46013)”, the “probe-labelled cysteine peptide fold change” value is -0.304.

In the case of “MOB3A_Q96BX8_186_IAQMGSEAHVNTCYK (UniProt Q96BX8)”, the “probe-labelled cysteine peptide fold change” value was -0.137.

Turning to “MIB1_Q86YT6_462_RPDVDVNGQCAGHTAMQAASQNGHVDILK (UniProt Q86YT6)”, the “probe-labelled cysteine peptide fold change” value was found to be 0.253.

The experiment is the same for the next values; noted with them: 50 µM; THP-1; incubation time: 4 h.
On to “MIF_P14174_81_LLCGLLAER (UniProt P14174)”, for which the “probe-labelled cysteine peptide fold change” value is -0.0471.

Turning to “MILR1_Q7Z6M3_329_EQEACDSYK (UniProt Q7Z6M3)”, the “probe-labelled cysteine peptide fold change” value is -0.818.

Turning to “MLH1_P40692_672_ECFESLSK (UniProt P40692)”, the “probe-labelled cysteine peptide fold change” value was 0.158.

In the case of “MKLN1_Q9UL63_446_LLREDSCNAGPEDIQSR (UniProt Q9UL63)”, the “probe-labelled cysteine peptide fold change” value amounted to 0.0488.

As for “MON2_Q7Z3U7_1033_LGELCVDPR (UniProt Q7Z3U7)”, the “probe-labelled cysteine peptide fold change” value was -0.0416.

Regarding “MPP6_Q9NZW5_236_CHFDYNPYNDNLIPCK (UniProt Q9NZW5)”, the “probe-labelled cysteine peptide fold change” value is 0.346.

On to “MRPL36_Q9P0J6_92_WYVYCK (UniProt Q9P0J6)”, for which the “probe-labelled cysteine peptide fold change” value was -0.0111.

With “MRPL17_Q9NRX2_129_GNCLPPLPLPR (UniProt Q9NRX2)”, the “probe-labelled cysteine peptide fold change” value was -0.187.

As for “MORC3_Q14149_694_SADDAGCQLQELR (UniProt Q14149)”, the “probe-labelled cysteine peptide fold change” value is -0.19.

Turning to “MRPS17_Q9Y2R5_58_TYFAHDALQQCTVGDIVLLR (UniProt Q9Y2R5)”, the “probe-labelled cysteine peptide fold change” value was 0.535.

As to “MIOS_Q9NXC5_854+856_DHAECPVSACTCK (UniProt Q9NXC5)”, the “probe-labelled cysteine peptide fold change” value is -0.484.

For “MRM3_Q9HC36_309_ASDHGWVCDQR (UniProt Q9HC36)”, the “probe-labelled cysteine peptide fold change” value was -0.709.

As for “MMTAG2_Q9BU76_58_APCAGPSREEELAAVR (UniProt Q9BU76)”, the “probe-labelled cysteine peptide fold change” value is -0.518.

For “MILR1_Q7Z6M3_297_EESVPEVGSRPCVSTAQDEAK (UniProt Q7Z6M3)”, the “probe-labelled cysteine peptide fold change” value was -0.958.

As for “MNDA_P41218_274_KVITISDYSECK (UniProt P41218)”, the “probe-labelled cysteine peptide fold change” value came to 0.084.

With “MRC2_Q9UBG0_521_AGQLSQGAAEEDHGCRK (UniProt Q9UBG0)”, the “probe-labelled cysteine peptide fold change” value is -0.516.

For the target “MKI67_P46013_1251_IPCDSPQSDPVDTPTSTK (UniProt P46013)”, the “probe-labelled cysteine peptide fold change” value was -0.547.

With “MIS18BP1_Q6P0N0_918_SPEECQR (UniProt Q6P0N0)”, the “probe-labelled cysteine peptide fold change” value came out at 0.316.

With “MRPL45_Q9BRJ2_80_SIHLACTAGIFDAYVPPEGDAR (UniProt Q9BRJ2)”, the “probe-labelled cysteine peptide fold change” value turned out to be 0.206.

In the case of “MKI67_P46013_1007_MPCQSLQPEPINTPTHTK (UniProt P46013)”, the “probe-labelled cysteine peptide fold change” value was -0.576.

“MRPL38_Q96DV4_321_KHQETMTPAGLSFFQCR (UniProt Q96DV4)”: the “probe-labelled cysteine peptide fold change” value turned out to be 0.181.

For the target “MORC3_Q14149_744_ETCHQSTETDAVFLLESINGK (UniProt Q14149)”, the “probe-labelled cysteine peptide fold change” value was -0.149.

Turning to “MRPL44_Q9H9J2_167_NLVDFLTGEEVVCHVAR (UniProt Q9H9J2)”, the “probe-labelled cysteine peptide fold change” value was 0.174.

Consider “MPC2_O95563_54_WGLVCAGLADMAR (UniProt O95563)”, for which the “probe-labelled cysteine peptide fold change” value is -0.386.

For the target “MKLN1_Q9UL63_82_THVCNLKK (UniProt Q9UL63)”, the “probe-labelled cysteine peptide fold change” value was -0.776.

For the target “MIA3_Q5JRA6_61_GEALEDFTGPDCR (UniProt Q5JRA6)”, the “probe-labelled cysteine peptide fold change” value stood at 0.0547.

In the case of “MOV10_Q9HCE1_650_LVSAQFPIDHFTHIFIDEAGHCMEPESLVAIAGLMEVK (UniProt Q9HCE1)”, the “probe-labelled cysteine peptide fold change” value is 0.0327.

Turning to “MRPL38_Q96DV4_290_QDQPIDFSEDARPSPCYQLAQR (UniProt Q96DV4)”, the “probe-labelled cysteine peptide fold change” value was 0.127.

In the case of “MROH1_Q8NDA8_888_ADVIHGCLHSIMALLPEPKEEDGGCQK (UniProt Q8NDA8)”, the “probe-labelled cysteine peptide fold change” value was -0.167.

“MKLN1_Q9UL63_469_CLYVFGGQR (UniProt Q9UL63)”: the “probe-labelled cysteine peptide fold change” value worked out at 0.0962.

“MROH1_Q8NDA8_1035_DGLVHPDPAILFHTCHSVGQIIAK (UniProt Q8NDA8)”: the “probe-labelled cysteine peptide fold change” value is -0.0212.

Take “MRPL22_Q9NWU5_70_RPAEIYHCR (UniProt Q9NWU5)”: the “probe-labelled cysteine peptide fold change” value was -0.0325.

For the target “MLH1_P40692_77_EDLDIVCER (UniProt P40692)”, the “probe-labelled cysteine peptide fold change” value amounted to 0.348.

With “MKI67_P46013_715_KPVGEVHSQFSTGHANSPCTIIIGK (UniProt P46013)”, the “probe-labelled cysteine peptide fold change” value is -0.245.

“MKI67_P46013_2706_IPCESPPLEVVDTTASTK (UniProt P46013)”: the “probe-labelled cysteine peptide fold change” value was -0.189.

As for “MOB3A_Q96BX8_186_IAQMGSEAHVNTCYK (UniProt Q96BX8)”, the “probe-labelled cysteine peptide fold change” value worked out at 0.206.

Take “MIB1_Q86YT6_462_RPDVDVNGQCAGHTAMQAASQNGHVDILK (UniProt Q86YT6)”: the “probe-labelled cysteine peptide fold change” value is -0.26.
